No constants are given. Whether binding was seen depends on the method and setting. Where a sequence is shown, tags or fusion partners need not be part of it.
Target: T1, rat ASIC1a-GFP (rat) (UniProt P55926)
T1 sequence: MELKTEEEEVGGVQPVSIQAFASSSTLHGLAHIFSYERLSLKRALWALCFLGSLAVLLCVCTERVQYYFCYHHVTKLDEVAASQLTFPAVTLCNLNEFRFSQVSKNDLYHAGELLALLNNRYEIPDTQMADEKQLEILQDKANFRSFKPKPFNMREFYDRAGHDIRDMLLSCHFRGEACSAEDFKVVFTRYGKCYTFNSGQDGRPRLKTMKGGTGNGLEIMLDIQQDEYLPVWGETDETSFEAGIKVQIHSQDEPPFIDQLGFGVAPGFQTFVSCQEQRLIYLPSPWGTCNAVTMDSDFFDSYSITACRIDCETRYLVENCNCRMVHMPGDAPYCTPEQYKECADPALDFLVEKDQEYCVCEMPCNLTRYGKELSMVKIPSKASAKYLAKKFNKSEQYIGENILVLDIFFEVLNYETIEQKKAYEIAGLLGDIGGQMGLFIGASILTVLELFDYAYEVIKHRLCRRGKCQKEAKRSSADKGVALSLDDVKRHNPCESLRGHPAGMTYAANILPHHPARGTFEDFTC
Assay: native gel or EMSA; high-resolution clear native PAGE (4 to 16%) of GFP-tagged proteins from 1% digitonin lysates of transfected HEK cells, GFP fluorescence scan; ASIC1a-GFP coexpressed with PCYOX1L-GFP

binding: no binding
Substance: rat PCYOX1L-GFP

— PMC13155533, “The secreted protein PCYOX1L controls the surface expression of acid-sensing ion channel 1a” (Science Advances, 2025)
